The record followed here is publication PMC6555300.

These are yes or no findings as the source states them, for the method shown. A result given as binding can be weak or reduced; the word gives no strength. Tags and fused reporters may be left off the sequences shown.

The assay deals with T1, SiRe_0171 (N-His) (S. islandicus) (UniProt F0NBB9).
T1 sequence: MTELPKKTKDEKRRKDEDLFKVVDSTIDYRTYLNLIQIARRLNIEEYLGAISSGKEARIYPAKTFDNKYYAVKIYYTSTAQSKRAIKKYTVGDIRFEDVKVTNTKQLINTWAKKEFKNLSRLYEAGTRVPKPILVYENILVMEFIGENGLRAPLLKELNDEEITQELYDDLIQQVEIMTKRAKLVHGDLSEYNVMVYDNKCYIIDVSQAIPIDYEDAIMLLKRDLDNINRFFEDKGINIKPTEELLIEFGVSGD
As to the kind of experiment: pull-down; Hjc (no His-tag) and SiRe_0171 (N-His) mixed and incubated at 65 °C for 30 min, then Ni-NTA beads in buffer A (50 mM Tris-HCl pH 8.0, 200 mM NaCl, 5% glycerol) at RT for 10 min; washed four times with 40 mM imidazole, eluted with 250 mM imidazole; SDS-PAGE and Western blot; both purified. (A western blot detects proteins with antibodies after separation by electrophoresis.)

For the substance “Holliday junction resolvase Hjc (S. islandicus) (enzyme)”, the binding result is reported as “binds weakly”.
